Drawing on publication doi:10.1101/2020.07.20.211441, this text covers binding for six molecules.

Results are given in words; binding and its absence hold for the method and conditions named. Binding seen in cells or lysates may run through a third protein. Here binding means that the protein was enriched with, or labelled near, the bait; the list need not be complete. Tags and fused reporters may be left off the sequences shown.

B1: STAG1 (protein, UniProt Q9D3E6 1-1258)
chain: MITSELPVLQDSTNETTAHSDAGSELEETEVKGKRKRGRPGRPPSTNKKPRKSPGEKSRIEAGIRGAGRGRANGHPQQNGDGDPVTLFEVVKLGKSAMQSVVDDWIELYKQDRDIALLDLINFFIQCSGCRGTVRIEMFRNMQNAEIIRKMTEEFDEDSGDYPLTMPGPQWKKFRSNFCEFIGVLIRQCQYSIIYDEYMMDTVISLLTGLSDSQVRAFRHTSTLAAMKLMTALVNVALNLSIHQDNTQRQYEAERNKMIGKRANERLELLLQKRKELQENQDEIENMMNSIFKGIFVHRYRDAIAEIRAICIEEIGVWMKMYSDAFLNDSYLKYVGWTLHDRQGEVRLKCLKALQSLYTNRELFPKLELFTNRFKDRIVSMTLDKEYDVAVEAIRLVTLILHGSEEALSNEDCENVYHLVYSAHRPVAVAAGEFLHKKLFSRHDPQAEEALAKRRGRNSPNGNLIRMLVLFFLESELHEHAAYLVDSLWESSQELLKDWECMTELLLEEPVQGEEAMSDRQESALIELMVCTIRQAAEAHPPVGRGTGKRVLTAKERKTQIDDRNKLTEHFIITLPMLLSKYSADAEKVANLLQIPQYFDLEIYSTGRMEKHLDALLKQIKFVVEKHVESDVLEACSKTYSILCSEEYTIQNRVDIARSQLIDEFVDRFNHSVEDLLQEGEEADDDDIYNVLSTLKRLTSFHNAHDLTKWDLFGNCYRLLKTGIEHGAMPEQIVVQALQCSHYSILWQLVKITDGSPSKEDLLVLRKTVKSFLAVCQQCLSNVNTPVKEQAFMLLCDLLMIFSHQLMTGGREGLQPLVFNPDTGLQSELLSFVMDHVFIDQDEENQSMEGDEEDEANKIEALHKRRNLLAAFSKLIIYDIVDMHAAADIFKHYMKYYNDYGDIIKETLSKTRQIDKIQCAKTLILSLQQLFNELVQEQGPNLDRTSAHVSGIKELARRFALTFGLDQIKTREAVATLHKDGIEFAFKYQNQKGQEYPPPNLAFLEVLSEFSSKLLRQDKKTVHSYLEKFLTEQMMERREDVWLPLISYRNSLVTGGEDDRMSVNSGSSSSKTSSVRSKKGRPPLHRKRVEDESLDNTWLNRTDTMIQTPGPLPTPQLTSTVLRENSRPMGEQIQEPESEHGSEPDFLHNPQMQISWLGQPKLEDLNRKDRTGMNYMKVRAGVRHAVRGLMEEDAEPIFEDVMMSSRSQLEDMNEEFEDTMVIDLPPSRNRRERAELRPDFFDSAAIIEDDSGFGMPMF
B2: SMC1a (protein, UniProt Q9CU62 1-1233)
chain: MGFLKLIEIENFKSYKGRQIIGPFQRFTAIIGPNGSGKSNLMDAISFVLGEKTSNLRVKTLRDLIHGAPVGKPAANRAFVSMVYSEEGAEDRTFARVIVGGSSEYKINNKVVQLHEYSEELEKLGILIKARNFLVFQGAVESIAMKNPKERTALFEEISRSGELAQEYDKRKKEMVKAEEDTQFNYHRKKNIAAERKEAKQEKEEADRYQRLKDEVVRAQVQLQLFKLYHNEVEIEKLNKELASKNKEIEKDKKRMDKVEDELKEKKKELGKMMREQQQIEKEIKEKDSELNQKRPQYIKAKENTSHKIKKLEAAKKSLQNAQKHYKKRKGDMDELEKEMLSVEKARQEFEERMEEESQSQGRDLTLEENQVKKYHRLKEEASKRAATLAQELEKFNRDQKADQDRLDLEERKKVETEAKIKQKLREIEENQKRIEKLEEYITTSKQSLEEQKKLEGELTEEVEMAKRRIDEINKELNQVMEQLGDARIDRQESSRQQRKAEIMESIKRLYPGSVYGRLIDLCQPTQKKYQIAVTKVLGKNMDAIIVDSEKTGRDCIQYIKEQRGEPETFLPLDYLEVKPTDEKLRELKGAKLVIDVIRYEPPHIKKALQYACGNALVCDNVEDARRIAFGGHQRHKTVALDGTLFQKSGVISGGASDLKAKARRWDEKAVDKLKEKKERLTEELKEQMKAKRKEAELRQVQSQAHGLQMRLKYSQSDLEQTKTRHLALNLQEKSKLESELANFGPRINDIKRIIQSREREMKDLKEKMNQVEDEVFEEFCREIGVRNIREFEEEKVKRQNEIAKKRLEFENQKTRLGIQLDFEKNQLKEDQDKVHMWEQTVKKDENEIEKLKKEEQRHMKIIDETMAQLQDLKNQHLAKKSEVNDKNHEMEEIRKKLGGANKEMTHLQKEVTAIETKLEQKRSDRHNLLQACKMQDIKLPLSKGTMDDISQEEGSSQGEESVSGSQRTSSIYAREALIEIDYGDLCEDLKDAQAEEEIKQEMNTLQQKLNEQQSVLQRIAAPNMKAMEKLESVRDKFQETSDEFEAARKRAKKAKQAFEQIKKERFDRFNACFESVATNIDEIYKALSRNSSAQAFLGPENPEEPYLDGINYNCVAPGKRFRPMDNLSGGEKTVAALALLFAIHSYKPAPFFVLDEIDAALDNTNIGKVANYIKEQSTCNFQAIVISLKEEFYTKAESLIGVYPEQGDCVISKVLTFDLTKYPDANPNPNEQ
B3: STAG2 (protein, UniProt O35638 1-1231)
chain: MIAAPEIPTDFNLLQESETHFSSDTDFEDIEGKNQKQGKGKTCKKGKKGPAEKGKSGNGGGKPPSGSNRMNGHHQQNGVENMMLFEVVKMGKSAMQSVVDDWIESYKHDRDIALLDLINFFIQCSGCKGVVTAEMFRHMQNSEIIRKMTEEFDEDSGDYPLTMAGPQWKKFKSSFCEFIGVLVRQCQYSIIYDEYMMDTVISLLTGLSDSQVRAFRHTSTLAAMKLMTALVNVALNLSINMDNTQRQYEAERNKMIGKRANERLELLLQKRKELQENQDEIENMMNAIFKGVFVHRYRDAIAEIRAICIEEIGIWMKMYSDAFLNDSYLKYVGWTMHDKQGEVRLKCLTALQGLYYNKELNSKLELFTSRFKDRIVSMTLDKEYDVAVQAIKLLTLVLQSSEEVLTAEDCENVYHLVYSAHRPVAVAAGEFLYKKLFSRRDPEEDGLMKRRGRQGPNANLVKTLVFFFLESELHEHAAYLVDSMWDCATELLKDWECMNSLLLEEPLSGEEALTDRQESALIEIMLCTIRQAAECHPPVGRGTGKRVLTAKEKKTQLDDRTRITELFAVALPQLLAKYSVDAEKVTNLLQLPQYFDLEIYTTGRLEKHLDALLRQIRNIVEKHTDTDVLEACSKTYHALCNEEFTIFNRVDISRSQLIDELADKFNRLLEDFLQEGEEPDEDDAYQVLSTLKRITAFHNAHDLSKWDLFACNYKLLKTGIENGDMPEQIVIHALQCAHYVILWQLAKITESTSTKEDLLRLKKQMRVFCQICQHYLTNVNTTVKEQAFTILCDILMIFSHQIMSGGRDMLEPLVYTPDSSLQSELLSFILDHVFIEQDDDSNSADGQQEDEASKIEALHKRRNLLAAFCKLIVYTVVEMNTAADIFKQYMKYYNDYGDIIKETMSKTRQIDKIQCAKTLILSLQQLFNEMIQENGYNFDRSSSTFSGIKELARRFALTFGLDQLKTREAIAMLHKDGIEFAFKEPNPQGESHPPLNLAFLDILSEFSSKLLRQDKRTVYVYLEKFMTFQMSLRREDVWLPLMSYRNSLLAGGDDDTMSVISGMSSRGSTVRSKKSKPSTGKRKVVEGMQLALPEESSSSDSMWLSREQTLHTPVMMQTPQLTSTIMREPKRLRPEDSFMSVYPMQAEHHQTPLDYNRRGTSLMEDDEEPIVEDVMMSSEGRIEDLNEGMDFDTMDIDLPPSKNRRERTELKPDFFDPASIMDESVLGVSMF
B4: GNL3 (protein, UniProt Q8CI11 1-538)
chain: MKRPKLKKASKRMTCHKRYKIQKKVREHHRKLRKEAKKRGHKKPRKDPGVPNSAPFKEALLREAELRKQQLEELKQQQKLDRQKEQERKRKLEVSPGDEQSNVETREESDEPKRKKAKAGKQNPKKLHCQELKKVIEASDIVLEVLDARDPLGCRCPQIEEAVIQSGSKKLILVLNKSDLVPKENLENWLNYLNKELPTVVFKASTNLKNRKTFKIKKKKVVPFQSKICCGKEALWKLLGDFQQSCGKDIQVGVIGFPNVGKSSVINSLKQEWICNVGISMGLTRSMQIVPLDKQITIIDSPCLIISPCNSPTALALRSPASIEELRPLEAASAILSQADNEQVVLKYTVPEYKDSLHFFTKLAQRRGLHQKGGSPNVESAAKLVWSEWTGASLGYYCHPPASWNHSLHFNENIAAVMKKGFNLEELEKNNAHSIQVLKGPHLTNRILFRSSGLTNGILDEKDIVEESPRQTEDKQDADDQENGSGERNAEISDVAPVEETRELSPEQSTAGKPSDGSSALDRASQEDETYDFTTDYI
B5: RAD21 (protein, UniProt Q61550 1-635)
chain: MFYAHFVLSKRGPLAKIWLAAHWDKKLTKAHVFECNLESSVESIISPKVKMALRTSGHLLLGVVRIYHRKAKYLLADCNEAFIKIKMAFRPGVVDLPEENREAAYNAITLPEEFHDFDQPLPDLDDIDVAQQFSLNQSRVEEITMREEVGNISILQENDFGDFGMDDREIMREGSAFEDDDMLVSTSASNLLLEPEQSTSNLNEKMNHLEYEDQYKDDNFGEGNDGGILDDKLISNNDGGIFDDPPALSEAGVMLPEQPAHDDMDEDDNGSLGGPDSPDSVDPVEPMPTMTDQTTLVPNEEEAFALEPIDITVKETKAKRKRKLIVDSVKELDSKTIRAQLSDYSDIVTTLDLAPPTKKLMMWKETGGVEKLFFLPAQPLWNNRLLKLFTRCLTPLVPEDLRKRRKGGEADNLDEFLKEFENPEVPREEQQPQQQQPQPQRDVIDEPIIEEPSRLQDSVMEASRTTIEESAMPPPPPQGVKRKAGQIDPEPSIPPQQVEQMEIPPVELPPEEPPNICQLIPELELLPEKEKEKEKEKEEEEEEEDEDASGGDQDQEERRWNKRTQQMLHGLQRALAKTGAESISLLELCRNTNRKQAAAKFYSFLVLKKQQAIELTQEEPYSDIIATPGPRFHII
B6: NUPl2 (protein, UniProt Q8CIC2 1-420)
chain: MTICQFFLQGRCRFGDRCWNEHPGARGAGGARQPPPQQQPPSGNNRRGWNASSQRYSNVIQPSSFPKSTPWGGSRDQDKPPFGSFDSGASTSRGFGSSQNPFASPLSDEQKDEKKLLEGIVKDVEVWESSGQWMFSVYSPVRKKPNISGFTDISPEELRLEYHNFLTSNNLQSYLNSVQQLVSQWRNRINELKNLTMSTKGALLSDVKDGVSQAVPAFGFGSKQAGSFGSPGFPVNNSSSSTVQNFSFKTSPGLATPPSGSTSVFGSHPAFGAGPSAGSSISSSTPAFGLGKPEATSAASFSFKSPEASSFASPGFSGFPASMAASPSGSTTAPPLRSGSSVVGFGSPSPHSQAVFAKPSTDVFGGSGISTSVLASGAADNALFTPRDQLMKEELEQFQSQRFTLGKIPLKPPPVELLTV

The assay addresses T1, XPA-binding protein (XAB)-2, biotin-tagged knock-in (mouse) (UniProt Q9DCD2).
T1 sequence (chain, biotin on the Avitag (by the BirA ligase in vivo)): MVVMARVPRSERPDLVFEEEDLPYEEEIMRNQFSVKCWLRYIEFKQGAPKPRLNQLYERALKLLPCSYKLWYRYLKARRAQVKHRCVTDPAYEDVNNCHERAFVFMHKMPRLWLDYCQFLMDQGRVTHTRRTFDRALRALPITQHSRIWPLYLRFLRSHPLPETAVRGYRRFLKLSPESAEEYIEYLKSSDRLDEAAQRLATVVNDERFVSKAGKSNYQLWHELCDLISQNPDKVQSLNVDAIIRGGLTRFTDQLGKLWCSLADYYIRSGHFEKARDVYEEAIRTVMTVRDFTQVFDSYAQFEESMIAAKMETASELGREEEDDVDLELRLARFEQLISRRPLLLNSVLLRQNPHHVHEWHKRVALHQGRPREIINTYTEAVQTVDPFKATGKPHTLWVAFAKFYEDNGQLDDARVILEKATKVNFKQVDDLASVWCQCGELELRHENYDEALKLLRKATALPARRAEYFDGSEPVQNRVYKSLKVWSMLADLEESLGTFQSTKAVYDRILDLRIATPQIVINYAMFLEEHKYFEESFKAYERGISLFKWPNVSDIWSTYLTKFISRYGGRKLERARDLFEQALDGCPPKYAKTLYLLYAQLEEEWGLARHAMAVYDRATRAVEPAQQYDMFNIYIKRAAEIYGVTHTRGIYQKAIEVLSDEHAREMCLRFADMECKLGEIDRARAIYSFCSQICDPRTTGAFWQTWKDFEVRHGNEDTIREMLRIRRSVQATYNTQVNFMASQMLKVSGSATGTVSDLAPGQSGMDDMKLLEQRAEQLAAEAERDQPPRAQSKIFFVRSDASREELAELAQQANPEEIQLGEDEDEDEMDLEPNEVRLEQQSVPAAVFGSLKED
As to the kind of experiment: affinity purification with mass spectrometry.
As for B1, the binding result was “binds”.
B2: the binding result was “binds”.
In the case of B3, the binding entry is recorded as “binds”.
Consider B4, for which the binding entry is listed as “binds”.
Under B5 stands “binds”; under B6, “binds”.
